# Data: US20060154922A1, “Muscarinic agonists” (ELILILLY AND COMPANY, priority 2003, published 2006)
# Tested on: Male Sprague-Dawley rats
# Details: administered s.c. immediately after the sampling phase; tested after a three-hour delay
structure (smiles),measurement,value
"CN1[C@@H]2C[C@@H](OC(=O)[C@H](CO)c3ccccc3)C[C@H]1[C@@H]1O[C@@H]12 [Scopolamine, scopolamine]",retention (errors in the retention session),disrupted retention after a three-hour delay in a dose-related fashion
